In publication PMC3936002 one finds binding data, which are given here for one substance.

By UniProt entry, the sequences of proteins in these tests, tags left out.
UniProt O95155: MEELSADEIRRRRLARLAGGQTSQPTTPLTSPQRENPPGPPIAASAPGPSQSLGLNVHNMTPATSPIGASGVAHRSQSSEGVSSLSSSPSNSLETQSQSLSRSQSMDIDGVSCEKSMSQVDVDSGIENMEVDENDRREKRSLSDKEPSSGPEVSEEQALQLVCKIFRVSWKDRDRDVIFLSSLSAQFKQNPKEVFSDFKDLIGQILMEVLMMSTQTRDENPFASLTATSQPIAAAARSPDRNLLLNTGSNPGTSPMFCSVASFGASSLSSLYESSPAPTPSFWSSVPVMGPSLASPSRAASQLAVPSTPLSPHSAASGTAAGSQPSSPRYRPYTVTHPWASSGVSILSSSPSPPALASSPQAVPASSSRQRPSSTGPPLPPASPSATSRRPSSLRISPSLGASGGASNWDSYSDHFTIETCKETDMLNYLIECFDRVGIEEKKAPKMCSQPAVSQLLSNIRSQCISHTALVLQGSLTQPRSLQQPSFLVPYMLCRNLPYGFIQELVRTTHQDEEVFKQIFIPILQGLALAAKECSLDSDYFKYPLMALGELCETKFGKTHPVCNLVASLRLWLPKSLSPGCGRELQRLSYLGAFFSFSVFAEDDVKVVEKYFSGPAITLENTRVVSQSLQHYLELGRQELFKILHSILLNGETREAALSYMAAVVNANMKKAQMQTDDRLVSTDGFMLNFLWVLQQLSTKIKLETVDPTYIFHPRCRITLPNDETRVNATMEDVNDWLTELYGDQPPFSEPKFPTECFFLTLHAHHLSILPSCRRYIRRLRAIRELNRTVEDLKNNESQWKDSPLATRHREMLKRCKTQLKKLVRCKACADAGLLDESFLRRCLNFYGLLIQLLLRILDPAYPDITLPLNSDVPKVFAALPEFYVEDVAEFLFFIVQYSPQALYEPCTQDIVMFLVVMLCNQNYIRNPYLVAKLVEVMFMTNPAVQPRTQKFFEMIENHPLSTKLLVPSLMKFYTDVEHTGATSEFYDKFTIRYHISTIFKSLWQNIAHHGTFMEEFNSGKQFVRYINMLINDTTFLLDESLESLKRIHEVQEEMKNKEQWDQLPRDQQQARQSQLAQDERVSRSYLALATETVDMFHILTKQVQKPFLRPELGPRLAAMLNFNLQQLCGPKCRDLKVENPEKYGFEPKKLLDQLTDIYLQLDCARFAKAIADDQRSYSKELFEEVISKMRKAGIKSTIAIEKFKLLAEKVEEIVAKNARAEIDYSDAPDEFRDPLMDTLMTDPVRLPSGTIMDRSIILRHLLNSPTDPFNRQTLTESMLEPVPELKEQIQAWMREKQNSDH
UniProt Q00987: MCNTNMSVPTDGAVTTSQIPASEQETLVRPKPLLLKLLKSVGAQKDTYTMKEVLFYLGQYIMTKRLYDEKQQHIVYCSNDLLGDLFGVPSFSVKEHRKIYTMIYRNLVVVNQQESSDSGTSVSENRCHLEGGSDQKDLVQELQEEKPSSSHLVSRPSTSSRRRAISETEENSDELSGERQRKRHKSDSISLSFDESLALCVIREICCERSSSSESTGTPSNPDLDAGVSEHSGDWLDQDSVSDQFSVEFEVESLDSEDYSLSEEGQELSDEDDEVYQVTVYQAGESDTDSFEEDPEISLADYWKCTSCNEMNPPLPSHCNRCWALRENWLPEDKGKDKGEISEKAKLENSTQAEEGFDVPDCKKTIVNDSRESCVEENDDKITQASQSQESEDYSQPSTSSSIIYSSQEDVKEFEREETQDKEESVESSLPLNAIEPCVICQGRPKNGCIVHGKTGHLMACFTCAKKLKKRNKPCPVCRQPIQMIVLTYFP

The assay has as its target UBE4B (human (endogenous in MCF-7)) (UniProt O95155). Put plainly: co-IP; MCF-7 cell lysates in HEPES buffer (50 mM HEPES pH 7.2, 250 mM NaCl, 10% glycerol, 1% NP-40, 1.0 mM EDTA, 0.5 mM DTT); incubated 8 h at 4°C on agarose with anti-UBE4B, anti-p53, anti-Hdm2 or IgG control antibodies; western blot; done in both directions.

These are yes or no findings as the source states them, for the method shown. Binding seen in cells or lysates may run through a third protein. Some entries that bind do so weakly or less than the wild type.

As for Hdm2 (from UniProt Q00987 1-491), the binding result is listed as “binds”.
